PubChem BioAssay AID1159578 | Peter MacCallum Cancer Centre – 2015
Here is one part, drawn at random, of about 18,000 reagents. Over the whole deposit, about 1,030 (5.7%) got an active call. 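Inactive calls also include pools with fewer than 3300 nuclei, whose migration was not assessed.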 The raw values are shown without normalisation. Further read-outs or replicates are left out here.

Aim: 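siRNA pools altering how lymphatic endothelial cells close a scratch wound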 (primary screen)
System: human lymphatic endothelial cells
Knock-down reagent: siRNA pool against human genes, 40 nM
Timing: 48 h after transfection
Measurement: 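Cells stained with dye and imaged after a scratch; covered wound area and nuclei counted, duplicates averaged, migration set against mock wells and turned into a robust z-score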
Reading the numbers: migration robust z-score: higher = faster migration into the scratch; nuclei per well: higher = more cells in the well
Active means: 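Pools averaging fewer than 3300 nuclei are never called; remaining pools count as changed when migration robust z lies outside -2 to 2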
Meaning of the calls: active = migration changed; inactive = no migration change, or too few cells

OR1D4 (olfactory receptor family 1 subfamily D member 4) | migration robust z-score = 3.18; nuclei per well, duplicate mean = 5748; Call = active
SRPK2 (SRSF protein kinase 2) | migration robust z-score = -1.58; nuclei per well, duplicate mean = 3403; Call = inactive
CRBN (cereblon) | migration robust z-score = -3.11; nuclei per well, duplicate mean = 5256; Call = active
MLEC (malectin) | migration robust z-score = 0.22; nuclei per well, duplicate mean = 6626; Call = inactive
B3GALT4 (beta-1,3-galactosyltransferase 4) | migration robust z-score = -0.52; nuclei per well, duplicate mean = 5590; Call = inactive
EIF2S2 (eukaryotic translation initiation factor 2 subunit beta) | migration robust z-score = -3.6; nuclei per well, duplicate mean = 6145; Call = active
WDR47 (WD repeat domain 47) | migration robust z-score = -1.2; nuclei per well, duplicate mean = 6219; Call = inactive
RBP3 (retinol binding protein 3) | migration robust z-score = -0.8; nuclei per well, duplicate mean = 5360; Call = inactive
RANBP6 (RAN binding protein 6) | migration robust z-score = 2.09; nuclei per well, duplicate mean = 4890; Call = active
NR1D1 (nuclear receptor subfamily 1 group D member 1) | migration robust z-score = -1.3; nuclei per well, duplicate mean = 5280; Call = inactive
GALNT10 (polypeptide N-acetylgalactosaminyltransferase 10) | migration robust z-score = -0.18; nuclei per well, duplicate mean = 5336; Call = inactive
MBOAT7 | migration robust z-score = -1.2; nuclei per well, duplicate mean = 4896; Call = inactive

Active calls, of those listed so far:
OR1D4 (olfactory receptor family 1 subfamily D member 4) | migration robust z-score = 3.18; nuclei per well, duplicate mean = 5748; Call = active
CRBN (cereblon) | migration robust z-score = -3.11; nuclei per well, duplicate mean = 5256; Call = active
EIF2S2 (eukaryotic translation initiation factor 2 subunit beta) | migration robust z-score = -3.6; nuclei per well, duplicate mean = 6145; Call = active
RANBP6 (RAN binding protein 6) | migration robust z-score = 2.09; nuclei per well, duplicate mean = 4890; Call = active
